The assay relates to P388 leukemia ip, CD2F1 mice, survival T/C. Briefly: NCI In Vivo Anticancer Drug Screen. Data for tumor model P388 Leukemia (intraperitoneal) in CD2F1 (CDF1) mice. Conditions: T/C endpoint: median survival time, higher T/C = longer survival.
The mark [1] stands for this setting: dose: 200.0 mg/kg/injection, schedule: Q01DX009 (ip), vehicle: other.
[2] abbreviates: dose: 400.0 mg/kg/injection, schedule: Q01DX009 (ip), vehicle: other.
Where [3] appears, read: dose: 50.0 mg/kg/injection, schedule: Q01DX009 (ip), vehicle: saline with Tween-80.
[4] abbreviates: dose: 200.0 mg/kg/injection, schedule: Q01DX005 (ip), vehicle: saline.
Where [5] appears, read: dose: 200.0 mg/kg/injection, schedule: Q04DX002 (ip), vehicle: saline with Tween-80.
Where [6] appears, read: dose: 400.0 mg/kg/injection, schedule: Q04DX002 (ip), vehicle: saline with Tween-80.
[7] abbreviates: dose: 100.0 mg/kg/injection, schedule: Q01DX009 (ip), vehicle: saline.
Where [8] appears, read: dose: 200.0 mg/kg/injection, schedule: Q01DX009 (ip), vehicle: saline.
Setting [9] is: dose: 200.0 mg/kg/injection, schedule: Q01DX005 (ip), vehicle: Klucel (hydroxypropylcellulose) (HPC).
Setting [10] is: dose: 100.0 mg/kg/injection, schedule: Q01DX005 (ip), vehicle: Klucel (hydroxypropylcellulose) (HPC).

Here are results for 28 compounds from PubChem BioAssay AID330 (DTP/NCI, 2004).

SMILES strings stand for the structures. The list does not hold the whole screen: it gathers tests that were run many times, whatever their T/C, doses with no T/C, and many T/C values between a quarter and a half above the control. Other doses and runs of a compound stand elsewhere. T/C is the treated group as % of the vehicle group. Some doses have a count of surviving animals in place of a T/C: the source holds a T/C of zero for them, seemingly a mark for toxic or unscored doses. Some survivor counts are full or nearly so, which does not show that the dose was tolerated: survival well below the control is almost never listed, so the zero probably covers shortened survival too. Survivors were counted at the toxicity check, usually on the fifth day, unless a day is given; later deaths do not show. Schedules are NCI's codes, taken here to give the interval after Q, in days (D) or hours (H), and the number of doses after X. Some entries hold several experiments; the results are listed from low to high. For survival time, the PubChem record calls one and a half times the control and up active, and a quarter to a half above the control has no call in these data; cut-offs in other NCI protocols can differ.

For `CNC(=S)NNc1ccc(Cl)c(Cl)c1`, the survivor count was 4 of 6 (dose: 100.0 mg/kg/injection, schedule: Q01DX009 (ip), vehicle: other); 0 of 6 under setting [1]; 0 of 6 under setting [2].
With `Cc1cccc(Nc2cc(=O)[nH]c(=O)[nH]2)c1`, the survivor count (dose: 400.0 mg/kg/injection, schedule: Q04DX003 (ip), vehicle: Klucel (hydroxypropylcellulose) (HPC)) is 3 of 6.
As for `COc1cc2cc(-c3ccc4c(c3)OCO4)[n+](C)cc2cc1OC`, the survivor count is reported as 2 of 6 (dose: 100.0 mg/kg/injection, schedule: Q01DX001 (ip), vehicle: Klucel (hydroxypropylcellulose) (HPC)); 0 of 6 (dose: 200.0 mg/kg/injection, schedule: Q01DX001 (ip), vehicle: Klucel (hydroxypropylcellulose) (HPC)); 0 of 6 (dose: 400.0 mg/kg/injection, schedule: Q01DX001 (ip), vehicle: Klucel (hydroxypropylcellulose) (HPC)).
On to `O=c1[nH]cnc2cc3[nH]ncc3cc12`, for which the survivor count runs as follows: (dose: 6.0 mg/kg/injection, schedule: Q01DX005 (ip), vehicle: saline with Tween-80) 5 of 6; (dose: 12.5 mg/kg/injection, schedule: Q01DX005 (ip), vehicle: saline with Tween-80) 6 of 6; (dose: 25.0 mg/kg/injection, schedule: Q01DX005 (ip), vehicle: saline with Tween-80) 6 of 6; (dose: 50.0 mg/kg/injection, schedule: Q01DX005 (ip), vehicle: saline with Tween-80) 6 of 6.
With `COC1OC2COC(c3ccccc3)OC2C(OS(=O)(=O)c2ccc(C)cc2)C1OS(=O)(=O)c1ccc(C)cc1` (stereo not drawn), under setting [3], the survivor count was 6 of 6.
For the compound `CCSC(=O)/C=C\C=[N+](/[O-])OC`, the survivor count under setting [1] is reported as 1 of 6.
In the case of `CCCCNC(c1ccc(N(CC)CC)cc1)C(Cl)(Cl)Cl` (stereo not drawn), the T/C under setting [4] is 138 % of control. For the same compound, the survivor count (dose: 200.0 mg/kg/injection, schedule: Q01DX005 (ip), vehicle: water) is 2 of 6 and the survivor count (dose: 400.0 mg/kg/injection, schedule: Q01DX005 (ip), vehicle: water) is 0 of 6.
With `C=C1C(=O)OC2CC(C)C3C(OC(C)=O)CC(OC(C)=O)C3(C)CC12` (stereo not drawn), the survivor count is on record as 5 of 6 (dose: 100.0 mg/kg/injection, schedule: Q04DX002 (ip), vehicle: saline with Tween-80); 0 of 6 under setting [5]; 0 of 6 under setting [6].
On to `N=c1c2ccn(C3OC(CO)C(O)C3O)c2ncn1N` (stereo not drawn), for which the T/C runs as follows: (dose: 12.5 mg/kg/injection, schedule: Q01DX009 (ip), vehicle: water) 126 % of control; (dose: 25.0 mg/kg/injection, schedule: Q01DX009 (ip), vehicle: water) 125 % of control. For the same compound, the survivor count (dose: 100.0 mg/kg/injection, schedule: Q01DX009 (ip), vehicle: water) was 6 of 6.
Consider `CC(=O)Nc1ccc(N=NNc2ccccc2)cc1`, for which the survivor count reads like this: (dose: 25.0 mg/kg/injection, schedule: Q01DX001 (ip), vehicle: Klucel (hydroxypropylcellulose) (HPC)) 2 of 6; (dose: 50.0 mg/kg/injection, schedule: Q01DX001 (ip), vehicle: Klucel (hydroxypropylcellulose) (HPC)) 0 of 6.
Take `CC1(C)SC2C(NC(=O)C(N)c3ccc(O)cc3)C(=O)N2C1C(=O)O` (stereo not drawn): the survivor count was 6 of 6 (dose: 50.0 mg/kg/injection, schedule: Q01DX009 (ip), vehicle: saline); 6 of 6 under setting [7]; 6 of 6 under setting [8].
In the case of `c1ccc(NSc2ccccc2)cc1`, the T/C (dose: 200.0 mg/kg/injection, schedule: Q01DX009 (ip), vehicle: Klucel (hydroxypropylcellulose) (HPC)) is 127 % of control. Under “dose: 400.0 mg/kg/injection, schedule: Q01DX009 (ip), vehicle: Klucel (hydroxypropylcellulose) (HPC)”, the survivor count is reported as 2 of 6.
As for `CCCCOc1ncnc2nc[nH]c12`, under setting [9], the survivor count is reported as 0 of 5.
`CC(=O)NC(Cn1cc(C(N)=O)ccc1=N)C(=O)O` (stereo not drawn): for the setting “dose: 12.5 mg/kg/injection, schedule: Q01DX005 (ip), vehicle: Klucel (hydroxypropylcellulose) (HPC)”, the T/C was 129 % of control. For the same compound, the survivor count is 0 of 6 and 4 of 6 (dose: 25.0 mg/kg/injection, schedule: Q01DX005 (ip), vehicle: Klucel (hydroxypropylcellulose) (HPC)); 0 of 6 (dose: 50.0 mg/kg/injection, schedule: Q01DX005 (ip), vehicle: Klucel (hydroxypropylcellulose) (HPC)); 0 of 6 under setting [10]; 0 of 6 under setting [9].
As for `CCCCNC(=O)ON1C(=O)c2ccccc2C1=O`, the survivor count is recorded as 2 of 6 under setting [3]; 0 of 6 (dose: 100.0 mg/kg/injection, schedule: Q01DX009 (ip), vehicle: saline with Tween-80); 0 of 6 (dose: 200.0 mg/kg/injection, schedule: Q01DX009 (ip), vehicle: saline with Tween-80).
`C1CCN(CCCCN2CCCCC2)CC1`: the survivor count under setting [7] was 2 of 6 and the survivor count under setting [8] is 2 of 6.
In the case of `c1ccc([S][Pb]([c]2ccccc2)([c]2ccccc2)[c]2ccccc2)cc1`, the survivor count reads like this: (dose: 25.0 mg/kg/injection, schedule: Q01DX001 (ip), vehicle: saline) 6 of 6; (dose: 50.0 mg/kg/injection, schedule: Q01DX001 (ip), vehicle: saline) 6 of 6; (dose: 100.0 mg/kg/injection, schedule: Q01DX001 (ip), vehicle: saline) 0 of 6 and 1 of 6; (dose: 200.0 mg/kg/injection, schedule: Q01DX001 (ip), vehicle: saline) 2 of 6; (dose: 400.0 mg/kg/injection, schedule: Q01DX001 (ip), vehicle: saline) 0 of 6.
With `NS(=O)(=O)c1ccc(N=NC2C(=O)N(c3ccc(Cl)cc3)C(=S)N(c3ccc(Cl)cc3)C2=O)cc1`, the survivor count reads like this: (dose: 100.0 mg/kg/injection, schedule: Q01DX005 (ip), vehicle: saline) 1 of 6; under setting [4], 0 of 6.
As for `CCN(CC)CCOC(=O)Cc1cccc2c(=O)cc(-c3cccs3)oc12`, the T/C under setting [10] is 136 % of control. Moreover, the survivor count under setting [9] is listed as 5 of 6.
Take `NC(=S)c1ccc(C2Nc3ccccc3N2)cc1`: the survivor count is listed as 6 of 6 under setting [5] and 4 of 6 under setting [6].
As to `N#CSCc1c(Cl)cccc1Cl`, the survivor count under setting [2] was 0 of 6.
Consider `O=C1Nc2ccccc2S/C1=C\c1ccccc1C(F)(F)F`, for which, under setting [8], the survivor count is 0 of 6.
For `Cc1ccc(C(=NN=C(c2ccc(C)cc2)c2ccc(C)cc2)c2ccc(C)cc2)cc1`, the survivor count under setting [6] is 6 of 6.
`CCN(CC)C(CC(=O)C(C)(C)C)=NCCCN1CCN(C)CC1`: the survivor count under setting [8] is listed as 1 of 6.
Consider `O=C(CNC(=O)Nc1ccc(Cl)c(Cl)c1)N/N=C/c1ccccc1F`, for which the survivor count runs as follows: (dose: 30.0 mg/kg/injection, schedule: Q01DX005 (ip), vehicle: saline with Tween-80) 6 of 6; (dose: 60.0 mg/kg/injection, schedule: Q01DX005 (ip), vehicle: saline with Tween-80) 6 of 6; (dose: 120.0 mg/kg/injection, schedule: Q01DX005 (ip), vehicle: saline with Tween-80) 6 of 6; (dose: 240.0 mg/kg/injection, schedule: Q01DX005 (ip), vehicle: saline with Tween-80) 6 of 6.
In the case of `CN(C)[C](=[Au][Cl])c1ccccc1`, the survivor count was 2 of 6 (dose: 200.0 mg/kg/injection, schedule: Q04DX002 (ip), vehicle: Klucel (hydroxypropylcellulose) (HPC)) and 0 of 6 (dose: 400.0 mg/kg/injection, schedule: Q04DX002 (ip), vehicle: Klucel (hydroxypropylcellulose) (HPC)).
Take `O=S(=O)(OCCCl)c1c(Cl)c(Cl)c(Cl)c(Cl)c1Cl`: under “dose: 200.0 mg/kg/injection, schedule: Q01DX005 (ip), vehicle: saline with Tween-80”, the survivor count is given as 0 of 5.
Take `COc1cc(Br)c(CC(=O)c2ccc3c(c2)OCO3)cc1OC`: the survivor count (dose: 100.0 mg/kg/injection, schedule: Q01DX005 (ip), vehicle: saline with Tween-80) is 6 of 6.
